The source of these data is PubChem BioAssay AID493014 (National Center for Advancing Translational Sciences (NCATS), 2011).

The other results are listed elsewhere or left out. Further columns of the screen follow, without active or inactive calls. The list favours compounds with an active or inconclusive main result. The note in brackets gives the kind of curve behind each potency; many fits are weak.

This assay can be described thus: qHTS Assay to Find Inhibitors of Chronic Active B-Cell Receptor Signaling. The following applies: ABC-DLBCL IkBa-CBG/CBR reporter, luminescence ratio (green luciferase fused to IkBa over red control in TMD8 lymphoma cells), 4 h. In outline:
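TMD8 human ABC-DLBCL cells with doxycycline-inducible IκBα–green luciferase fusion and unfused red luciferase, in 0.5% FBS medium; compounds up to 46 uM, 4 h at 37C. Green/red luminescence ratio, filter-overlap corrected, fitted to concentration-response curves.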
On the technique in general: In qHTS, concentration-response curves come from the screen itself.

Setting [1] is: measured here: CBR red luminescence, cell number.
The mark [2] stands for this setting: measured here: IkBa-CBG green luminescence.

In the case of `CCOC(=O)c1sc(NC(=O)c2cncc(Br)c2)nc1C`, the AC50 under setting [1] was 0.00517 µM [falling, full curve, poor fit]. Regarding `O=C(CSc1ncnc2sccc12)Nc1ccccc1F`, the AC50 under setting [1] is 11.2 µM [falling, partial curve]. For `COc1ccccc1NC(=O)CN(Cc1ccco1)C(=O)c1ccc(N2CCCC2=O)cc1`, the AC50 under setting [1] was 20.6 µM [rising, partial curve]. The same measure, in the same setting: for `COc1cccc(NC(=O)c2ccc3c(c2)N(C)CCS3)c1` the value was 3.55 µM [falling, partial curve, poor fit]; for `O=C(Nc1nc2c(s1)CCCC2)c1ccc(Br)o1`, 10 µM [falling, partial curve, poor fit]; for `O=C(Nc1nnc(SCc2ccc(F)cc2)s1)c1ccco1`, 0.82 µM [rising, partial curve, poor fit]. On to `O=C1C(Cc2ccccc2)Nc2ncnc(N3CCc4ccccc4C3)c2N1Cc1ccc(Br)cc1` (stereo not drawn), for which, under setting [1], the concentration at half-maximal activity (AC50) was 29.1 µM [falling, single point].

Turning to `O=C(Nc1ccc(Cl)cc1)Nc1nnc(CSCc2ccccc2Cl)s1`, the AC50 under setting [1] was 29.1 µM [rising, partial curve, poor fit].

As for `C/C=C/c1ccc(OCC(=O)OCC)c(OC)c1`, the AC50 under setting [1] is 12.6 µM [rising, partial curve, poor fit]. Same read-out and setting: the same measure for `Cc1ccc(NC(=O)Nc2ccc(Cl)c(Cl)c2)nc1`: 3.55 µM [rising, partial curve, poor fit]. Take `CC1CCN(S(=O)(=O)N2CCC(C(=O)NCc3ccc4c(c3)OCO4)CC2)CC1`: the AC50 under setting [1] is 13 µM [rising, partial curve, poor fit]. As to `Cc1c(C(=O)N(C)CCOc2ccccc2)oc2c(Cl)cccc12`, the half-maximal activity concentration (AC50) under setting [1] is 5.17 µM [rising, full curve, poor fit]. On to `NS(=O)(=O)c1ccc(CCNS(=O)(=O)c2ccc(Cl)nc2)cc1`, for which the AC50 under setting [1] was 20 µM [rising, single point]. As for `CCNc1c(NS(=O)(=O)c2ccc(OC)c(Cl)c2)c(=O)oc2ccccc12`, the AC50 under setting [1] was 20 µM [falling, single point]. For `O=C(Nc1ccccn1)c1ccc([N+](=O)[O-])cc1Cl`, under setting [1], the AC50 was 29.1 µM [rising, single point]. For `COc1cc(/C=C/C(=O)OCC(=O)N2CCN(S(=O)(=O)c3ccc(C)cc3C)CC2)cc(Cl)c1OC`, the AC50 under setting [1] is 3.66 µM [rising, partial curve, poor fit]. For `O=C(NC(=S)Nc1ccc2oc(=O)ccc2c1)c1ccco1`, the AC50 under setting [1] is 4.47 µM [rising, partial curve, poor fit]. Same read-out and setting: the same measure for `COc1cc(CN2CCNC(=O)C2CC(=O)NC2CCCCC2)cc(OC)c1` (stereo not drawn): 11.2 µM [falling, partial curve, poor fit].

With `Cc1cc(N2CC(C)OC(C)C2)n2cc(-c3ccccc3)nc2n1` (stereo not drawn), the AC50 under setting [1] is 35.5 µM [falling, single point]. Regarding `COc1cc(OC)cc(C(=O)Nc2nc(CC(=O)NCc3ccccc3OC)cs2)c1`, under setting [1], the AC50 was 29.1 µM [falling, single point]. With `COc1ccc(S(=O)(=O)N2CCN(C(=O)c3cccc(Cl)c3)CC2)cc1`, the AC50 under setting [1] is 29.1 µM [falling, single point] and the AC50 under setting [2] is 29.1 µM [rising, partial curve, poor fit].

For `COc1ccc(N(C(=O)c2ccncc2)S(=O)(=O)c2ccc(Cl)cc2)cc1`, the AC50 under setting [1] is 7.94 µM [falling, partial curve, poor fit]. The same measure, in the same setting: for `CC(=O)NS(=O)(=O)c1ccc(NC(=S)NC(=O)C(C)C)cc1` the value was 29.1 µM [rising, single point]; for `O=C(CNC(=O)c1cccs1)NCC(=O)OCc1ccccc1Br`, 5.62 µM [rising, full curve]. `Cc1sc2nc(SCC(=O)Nc3cccc(C(=O)O)c3)[nH]c(=O)c2c1C`: under setting [1], the AC50 is 11.6 µM [falling, partial curve]. Take `CN1CCN(C(=O)c2cc(-c3cccc(Cl)c3)on2)CC1`: the AC50 under setting [1] is 1.78 µM [rising, partial curve, poor fit]. For the molecule `CC1CN(C(=O)CSc2nc(-c3ccccc3)cs2)CC(C)O1` (stereo not drawn), under setting [1], the AC50 was 25.9 µM [rising, single point]. As to `Cc1ccccc1NC(=S)N(CCc1c(C)[nH]c2ccc(F)cc12)Cc1ccncc1`, the AC50 under setting [1] is 35.5 µM [falling, single point]. For `COc1ccccc1NS(=O)(=O)c1cccc(NC(=O)Nc2cccc(Cl)c2)c1`, the AC50 under setting [1] was 8.2 µM [falling, partial curve, poor fit]. As to `COC(CN(C)C(=O)c1cn(C)c2ccc(S(=O)(=O)N(C)C3CCCCC3)cc2c1=O)OC`, under setting [1], the AC50 was 35.5 µM [rising, partial curve, poor fit].

As for `COc1ccc(S(=O)(=O)Nc2cc(C(=O)NC(C)C)ccc2N2CCOCC2)cc1`, the AC50 under setting [1] was 18.4 µM [rising, single point] and the AC50 under setting [2] is 29.1 µM [falling, single point].

Regarding `COc1ccc(NC(=O)c2cc(=O)c3ccccc3o2)cn1`, the AC50 under setting [1] is 14.1 µM [rising, partial curve, poor fit]. Consider `CN(CC(=O)Nc1ccccc1Br)C(=O)c1n[nH]c2ccccc12`, for which the AC50 under setting [1] is 0.82 µM [falling, full curve]. For `CC(C)CC(=O)NS(=O)(=O)c1ccc(NS(C)(=O)=O)cc1`, under setting [1], the half-maximal activity concentration (AC50) was 10 µM [rising, partial curve, poor fit].

Regarding `CN(C(=O)c1ccc2c(c1)OCO2)C1(C(=O)NC2CCCC2)CCCCC1`, the AC50 under setting [1] is 29.1 µM [falling, single point]. Still for that read-out and setting: for `O=C(O)C(Cc1ccccc1)N1C(=O)c2ccccc2C1=O` (stereo not drawn) the value was 23.1 µM [rising, single point]. For `CCOC(=O)c1ccc(NC(=O)Nc2ccon2)cc1`, the AC50 was 3.16 µM [rising, single point] under setting [1] and 2.82 µM [falling, full curve] under setting [2]. On to `CN(C)CCCN1c2ccccc2Sc2ccc(Cl)cc21`, for which, under setting [1], the AC50 is 15.8 µM [falling, single point]. For `COc1ccc(NC(=S)N=Nc2c(O)[nH]c3ccccc23)cc1`, the concentration at half-maximal activity (AC50) by setting is: under setting [1], 12.6 µM [rising, partial curve]; under setting [2], 4.47 µM [falling, full curve].

For the molecule `CCOc1cc(/C=C/C(=O)c2ccc3c(c2)OCCO3)ccc1OCC(=O)N(C)C`, the AC50 under setting [1] is 7.94 µM [falling, partial curve]. On to `CC1CC(C)CN(S(=O)(=O)c2ccc(C(=O)N(c3ccccn3)C3CCCCC3)cc2)C1` (stereo not drawn), for which the AC50 under setting [1] is 25.1 µM [falling, partial curve, poor fit]. On the same count and under the same terms, for `CCOC(=O)Cc1csc(NC(=O)C(CC(C)C)NC(=O)C2CCCCC2)n1` (stereo not drawn) the value was 35.5 µM [rising, single point]. Regarding `O=C(NN=C1CCCCCC1)c1cn(-c2ccccc2)nc1-c1ccccc1`, the AC50 under setting [1] is 6.51 µM [rising, single point].

For the molecule `CC(C)CC(=O)Nc1nc2c(c(=O)[nH]1)CCCC2`, the AC50 under setting [1] was 8.2 µM [falling, partial curve, poor fit]. In the case of `Nc1nc(-c2cccs2)c(NC(=O)c2ccccc2)s1`, the AC50 under setting [1] was 28.2 µM [falling, single point].

`CCn1c(O)c(C2=NCCCC2)c2ccccc21`: the AC50 under setting [1] is 15.8 µM [falling, single point]. Consider `O=C(CN1C(=O)NC2(CCCCCC2)C1=O)c1ccc(Cl)cc1`, for which the AC50 under setting [1] is 2.31 µM [rising, full curve, poor fit].

For `N#Cc1ccccc1NC(=O)CN1CCN(Cc2ccccc2)CC1`, the concentration at half-maximal activity (AC50) under setting [1] is 6.31 µM [rising, single point]. On to `C(/CCc1ccccc1)=N\Nc1nc2ccccc2[nH]1`, for which the concentration at half-maximal activity (AC50) under setting [1] was 25.1 µM [falling, single point]. Take `O=C(NC(=S)NCCC1=CCCCC1)c1ccco1`: under setting [1], the AC50 is 0.112 µM [rising, full curve, poor fit].

As for `CC1CC(=O)Nc2ccccc2N1C(=O)CSc1nnnn1C(C)C` (stereo not drawn), the AC50 under setting [1] was 7.31 µM [rising, partial curve, poor fit].

Consider `COc1ccccc1N1CCN(CC(=O)c2c(C)n(C)c3ccccc23)CC1`, for which the AC50 under setting [1] is 6.31 µM [rising, partial curve, poor fit]. With `CN1/C(=C\C(=O)COC(=O)C2COc3ccccc3O2)C(C)(C)c2ccccc21` (stereo not drawn), the AC50 under setting [1] was 5.01 µM [rising, partial curve, poor fit]. On to `COc1cc(/C=N/NC(=O)c2cccnc2)cc2c1OCO2`, for which, under setting [1], the AC50 was 11.2 µM [falling, partial curve, poor fit]. With `Nc1nc(SCc2ccc(Br)cc2)[nH]c(=O)c1-c1ccccc1`, under setting [1], the concentration at half-maximal activity (AC50) was 5.01 µM [rising, partial curve]. For `Cc1ccc2nc(-c3ccccc3O)c(Nc3ccc4c(c3)OCCO4)n2c1`, under setting [1], the AC50 is 25.9 µM [rising, single point]. Still for that read-out and setting: the same measure for `C=C(Cl)COc1ccc2c(CC)cc(=O)oc2c1`: 2.51 µM [rising, full curve, poor fit]; for `CC(=O)CSc1nnc2cc(C)c3ccccc3n12`: 11.2 µM [rising, partial curve]. On to `COc1ccccc1-c1nc2c3ccccc3nc(=S)n2[nH]1`, for which the AC50 is, setting by setting: under setting [1], 35.5 µM [rising, single point]; under setting [2], 4.47 µM [falling, full curve].

Regarding `Oc1ccc2cc(Br)ccc2c1CN1CCCC1`, the AC50 under setting [1] was 10 µM [rising, partial curve]. Same read-out and setting: the same measure for `COc1ccccc1CNC(=O)COC(=O)c1ccccc1-c1ccccc1`: 23.1 µM [falling, partial curve, poor fit]; for `Cc1c(C(=O)O)cccc1-c1ccc(/C=C2\SC(=O)NC2=O)o1`: 0.794 µM [falling, full curve].

Regarding `O=C(NCc1nc2ccccc2[nH]1)C1=C[C@H](c2ccc(C(F)(F)F)cc2)C[C@H](OCc2ccc(CO)cc2)O1`, the half-maximal activity concentration (AC50) under setting [1] is 35.5 µM [falling, single point].

Usually AC50 stands for the concentration giving half of the maximal activity seen.
